# No constants are given. Whether binding was seen depends on the method and setting. A result given as binding can be weak or reduced; the word gives no strength.
# Biological target: T1, A2M^3K, recombinant A2M with the Arg704Lys, Arg715Lys and Arg719Lys mutations (human) (UniProt P01023)
# T1 sequence: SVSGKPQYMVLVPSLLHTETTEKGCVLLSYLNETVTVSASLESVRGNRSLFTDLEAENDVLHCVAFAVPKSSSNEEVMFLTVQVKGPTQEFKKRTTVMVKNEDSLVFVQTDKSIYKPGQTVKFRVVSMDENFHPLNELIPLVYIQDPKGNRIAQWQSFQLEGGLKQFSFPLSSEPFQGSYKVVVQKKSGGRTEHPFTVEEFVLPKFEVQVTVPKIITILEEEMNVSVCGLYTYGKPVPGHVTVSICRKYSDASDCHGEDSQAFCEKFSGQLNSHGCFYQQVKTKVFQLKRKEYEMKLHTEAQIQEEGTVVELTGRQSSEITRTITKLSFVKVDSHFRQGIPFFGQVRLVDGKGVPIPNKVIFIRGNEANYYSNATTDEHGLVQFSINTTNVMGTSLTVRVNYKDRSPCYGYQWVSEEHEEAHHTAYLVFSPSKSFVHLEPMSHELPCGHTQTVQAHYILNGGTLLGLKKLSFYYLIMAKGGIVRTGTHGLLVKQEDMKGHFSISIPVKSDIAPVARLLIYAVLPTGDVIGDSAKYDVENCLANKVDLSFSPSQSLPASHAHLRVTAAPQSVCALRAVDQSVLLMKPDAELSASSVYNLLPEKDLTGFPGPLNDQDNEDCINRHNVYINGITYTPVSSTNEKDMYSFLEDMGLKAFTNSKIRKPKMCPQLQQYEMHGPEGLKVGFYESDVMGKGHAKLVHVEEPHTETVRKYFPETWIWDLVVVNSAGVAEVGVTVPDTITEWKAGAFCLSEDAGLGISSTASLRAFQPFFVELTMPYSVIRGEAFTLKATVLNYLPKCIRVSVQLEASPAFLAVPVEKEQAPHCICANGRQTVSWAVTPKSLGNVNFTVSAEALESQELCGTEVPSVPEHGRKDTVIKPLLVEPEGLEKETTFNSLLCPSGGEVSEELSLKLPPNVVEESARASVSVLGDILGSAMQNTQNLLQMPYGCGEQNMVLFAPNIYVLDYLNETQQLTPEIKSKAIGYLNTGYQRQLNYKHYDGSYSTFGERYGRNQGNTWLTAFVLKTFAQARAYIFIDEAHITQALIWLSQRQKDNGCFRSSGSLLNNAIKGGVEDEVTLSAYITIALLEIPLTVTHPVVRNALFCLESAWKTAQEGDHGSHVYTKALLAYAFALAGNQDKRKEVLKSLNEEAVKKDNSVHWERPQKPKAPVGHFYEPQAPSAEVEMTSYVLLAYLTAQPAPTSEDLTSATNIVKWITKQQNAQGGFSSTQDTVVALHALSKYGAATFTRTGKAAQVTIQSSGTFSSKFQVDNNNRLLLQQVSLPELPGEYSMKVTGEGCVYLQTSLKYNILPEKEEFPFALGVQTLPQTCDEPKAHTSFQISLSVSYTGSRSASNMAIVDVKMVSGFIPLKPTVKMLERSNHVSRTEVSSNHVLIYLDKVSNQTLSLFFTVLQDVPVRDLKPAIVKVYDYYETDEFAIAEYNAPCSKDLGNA
# Assay: reducing SDS-PAGE of covalent protease conjugates; A2M incubated with protease; covalent conjugation through the thiol ester seen on reducing SDS-PAGE; both purified
substance,measurement,value
"LysC, a lysine-specific protease (enzyme)",binding,binds
